Data from US20230242605A1.
No constants are given. Whether binding was seen depends on the method and setting. In cells and extracts the contact can be indirect. Some results given as binding are weak or reduced against the parent protein; the word gives no strength. Sequences can lack the tags named with a protein.

The chains behind the UniProt entries cited, without tags or fusion partners. Where a name states a change or a piece, a line headed by the entry shows the natural chain unless it says otherwise. A line that says so, or that is headed by a name, gives the form on record, which may keep a tag or linker.
HA-tagged BMPR2-E376K (bone morphogenetic protein type 2 receptor, amino acid 376 mutated from glutamic acid to lysine) (Q13873, form named): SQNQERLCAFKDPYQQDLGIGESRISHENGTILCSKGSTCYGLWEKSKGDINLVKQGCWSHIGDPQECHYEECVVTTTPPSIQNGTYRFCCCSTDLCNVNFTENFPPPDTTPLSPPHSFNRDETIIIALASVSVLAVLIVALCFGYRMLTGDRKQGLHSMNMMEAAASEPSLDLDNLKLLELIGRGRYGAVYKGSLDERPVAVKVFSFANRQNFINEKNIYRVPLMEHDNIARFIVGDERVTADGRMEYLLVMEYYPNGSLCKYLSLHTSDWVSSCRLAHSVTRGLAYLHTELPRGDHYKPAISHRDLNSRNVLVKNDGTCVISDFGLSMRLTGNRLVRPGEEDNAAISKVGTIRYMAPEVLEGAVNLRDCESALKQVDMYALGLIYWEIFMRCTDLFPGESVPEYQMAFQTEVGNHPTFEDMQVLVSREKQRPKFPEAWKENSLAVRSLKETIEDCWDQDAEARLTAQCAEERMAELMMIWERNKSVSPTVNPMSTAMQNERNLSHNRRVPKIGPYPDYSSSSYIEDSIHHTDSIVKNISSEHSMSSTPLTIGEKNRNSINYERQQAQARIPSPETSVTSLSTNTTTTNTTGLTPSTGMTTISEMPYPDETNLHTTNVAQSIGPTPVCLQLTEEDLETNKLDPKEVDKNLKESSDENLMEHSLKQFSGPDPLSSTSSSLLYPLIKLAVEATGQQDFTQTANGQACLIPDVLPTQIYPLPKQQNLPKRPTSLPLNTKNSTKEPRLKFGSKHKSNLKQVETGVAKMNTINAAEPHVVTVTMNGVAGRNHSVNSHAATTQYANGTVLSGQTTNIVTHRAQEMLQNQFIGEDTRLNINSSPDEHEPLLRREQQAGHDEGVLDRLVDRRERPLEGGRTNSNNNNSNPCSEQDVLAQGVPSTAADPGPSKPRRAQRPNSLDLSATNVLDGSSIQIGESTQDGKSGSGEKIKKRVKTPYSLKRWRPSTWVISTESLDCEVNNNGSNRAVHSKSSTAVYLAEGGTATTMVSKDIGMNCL

Assays:
[1] = target: T1, V5-tagged wild-type ACVR1 (activin A type I receptor) (UniProt Q04771); experiment: co-immunoprecipitation (FIG. 3a), no BMP ligand
T1 sequence (looked up): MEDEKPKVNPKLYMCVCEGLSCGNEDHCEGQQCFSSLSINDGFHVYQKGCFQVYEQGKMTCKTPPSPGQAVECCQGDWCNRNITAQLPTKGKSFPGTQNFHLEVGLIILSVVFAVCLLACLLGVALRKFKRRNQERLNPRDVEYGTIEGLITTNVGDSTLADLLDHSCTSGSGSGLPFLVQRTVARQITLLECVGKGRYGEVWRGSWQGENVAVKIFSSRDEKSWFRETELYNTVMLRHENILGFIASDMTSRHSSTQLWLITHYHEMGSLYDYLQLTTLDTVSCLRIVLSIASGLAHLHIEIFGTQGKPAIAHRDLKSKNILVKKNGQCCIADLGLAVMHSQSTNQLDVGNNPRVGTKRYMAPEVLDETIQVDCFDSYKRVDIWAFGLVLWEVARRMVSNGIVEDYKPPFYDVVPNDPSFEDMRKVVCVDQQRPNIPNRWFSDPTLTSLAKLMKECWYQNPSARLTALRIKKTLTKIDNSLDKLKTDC

[2] = target: T1, V5-tagged wild-type ACVR1 (activin A type I receptor); experiment: co-immunoprecipitation, western blot
[3] = target: T1, V5-tagged wild-type ACVR1 (activin A type I receptor); experiment: co-immunoprecipitation (anti-HA agarose) from transfected HEK293T lysates, no BMP ligand

binding [1]: binds
binding [2]: binds
binding [3]: binds
Substance: HA-tagged BMPR2-E376K (bone morphogenetic protein type 2 receptor, amino acid 376 mutated from glutamic acid to lysine) (from UniProt Q13873 27-1038)
